# Microarray screen: hit calls

Targets, with sequences 5′ to 3′:
T1: TPP riboswitch RNA three-way junction, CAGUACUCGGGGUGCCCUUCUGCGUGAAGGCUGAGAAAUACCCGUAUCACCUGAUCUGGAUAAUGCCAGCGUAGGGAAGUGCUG. About 160 hits among about 24,000 compounds.
T2: SAM-II riboswitch RNA pseudoknot, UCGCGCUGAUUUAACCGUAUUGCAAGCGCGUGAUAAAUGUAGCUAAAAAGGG. About 200 hits among about 21,000 compounds.
T3: PreQ1 riboswitch RNA pseudoknot, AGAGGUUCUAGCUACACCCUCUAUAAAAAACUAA. From B. subtilis. About 170 hits among about 24,000 compounds.

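The test is a small-molecule microarray: each compound is printed twice on a reactive slide, and binding shows as fluorescence of the labelled oligonucleotide after washing. The data file lists only calls. An earlier report of the laboratory on the PreQ1, TPP and SAM-II riboswitches (doi:10.1038/s41467-019-09493-3) used 1 µM RNA for 2 h and required a mean Z-score above 3 (spot signal-to-noise against the whole library), a score well above that on a control array, and duplicate spots agreeing (coefficient of variation under 100); it then also set aside compounds that hit other targets, which this list keeps. The cut-offs behind this list may differ. The calls come from the array alone, and fixing a compound to the slide can hide its binding.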
“active” means called a hit, “inactive” means screened and not called a hit.
This is an unselected part of the compounds tested.
A target missing from an entry has no call listed here.

Nc1ccc(N2C(=O)c3cccc4cccc(c34)C2=O)cc1 was scored T1: inactive; T2: inactive; T3: inactive.
CN1C(C(=O)Nc2ccccn2)=C(O)c2sc(Cl)cc2S1(=O)=O was scored T1: inactive; T2: inactive; T3: inactive.
CC(C)(O)CCc1cccc(C(=O)NCC(C)(C)CO)c1 was scored T1: inactive; T2: inactive; T3: inactive.
CC(=O)N[C@H]1[C@@H]([C@H](O)[C@H](O)CO)OC(C(=O)O)=C[C@@H]1N=C(N)N was scored T1: inactive; T2: inactive; T3: inactive.
CCCCn1c(=N)n(CC(O)c2ccc(OC)cc2)c2ccccc21 (stereo not drawn) was scored T1: inactive; T2: inactive; T3: inactive.
CC1=CN2C(c3cccc([N+](=O)[O-])c3)=NON(c3ccc(C)cn3)C2C=C1 (stereo not drawn) was scored T1: inactive; T2: inactive; T3: inactive.
CCCCN1C(=O)CC(C(=O)OCC)=C1C was scored T1: inactive; T2: inactive; T3: inactive.
COc1cc(O)ccc1-c1cc(-c2[nH]c(C)c(C(=O)O)c2C)nc(N)c1C#N was scored T1: inactive; T2: inactive; T3: inactive.
C=CCN1C(=O)C2(C(C#N)=C(N)Oc3c2c(=O)n(C)c2ccccc32)c2ccccc21 (stereo not drawn) was scored T1: inactive; T2: inactive; T3: inactive.
O=[N+]([O-])c1cc/c(=N/N=C(c2ccccc2)c2ccccc2)[nH]c1 was scored T1: inactive; T2: inactive; T3: inactive.
COCCc1noc(CNC2CCSC2)n1 (stereo not drawn) was scored T1: inactive; T2: inactive; T3: inactive.
COCCCNCc1ccc2c(c1)n(C)c(=O)n2C was scored T1: inactive; T3: inactive.
CCCCOCCCN1CC(=O)C(c2nc3ccccc3[nH]2)=C1N was scored T1: inactive; T3: inactive.
Nc1nc(SCC(=O)NC2CCCCC2)nc2sc3c(c12)CCCC3 was scored T1: inactive; T2: inactive; T3: inactive.
CN(CCC(=O)N1CCC2(CC1)[C@H](O)C[C@@H]2O)S(C)(=O)=O was scored T1: inactive; T2: inactive; T3: inactive.
CCN1CC2C3CCC(C)(O3)C2C1 (stereo not drawn) was scored T1: inactive; T2: inactive; T3: inactive.
N#CC1=C(N)OC2=C(C(=O)CCC2)C1Cc1ccccc1 (stereo not drawn) was scored T1: inactive; T2: inactive; T3: inactive.
COc1cc2c(Oc3ccc4[nH]c(C)cc4c3F)ncnc2cc1OCCCN1CCCC1 was scored T1: inactive; T2: inactive; T3: inactive.
CC(C)Nc1nc(N(C#N)CC#N)nc(N2CCOCC2)n1 was scored T1: inactive; T2: inactive; T3: inactive.
COC(=O)c1ccccc1Oc1ccc(N)cc1N.Cl.Cl was scored T1: inactive; T2: inactive; T3: inactive.
CCCCC(C)(C)[C@H](O)C=C[C@H]1[C@H](O)CC(=O)[C@H]1CC=CCCCC(=O)O was scored T1: inactive; T2: inactive; T3: inactive.
COc1cccc(CNc2ncc(-c3ccc(Br)cc3)n2C)c1 was scored T1: inactive; T2: inactive; T3: inactive.
CCCCCCOc1ccc(N2C(=O)CC(SCCN)C2=O)cc1 (stereo not drawn) was scored T1: inactive; T2: inactive; T3: inactive.
CCS(=O)(=O)N1CCc2nc(N)nc(NCc3ccon3)c2CC1 was scored T1: inactive; T2: inactive; T3: inactive.
COc1cccc2c1OCCCN(C(=O)CN1C[C@@H]3CC[C@H](CC1=O)N3)C2 was scored T1: inactive; T2: inactive; T3: inactive.
Cc1cc(NCc2cccnc2)n2ncc(-c3ccc(F)cc3)c2n1 was scored T1: inactive; T3: inactive.
CC(NC(CO)CO)c1ccc(-c2ccccc2)cc1 (stereo not drawn) was scored T1: inactive; T2: inactive; T3: inactive.
CCN1c2ccccc2C2=C(C(c3cccc(C)c3)C(C#N)=C(N)O2)S1(=O)=O (stereo not drawn) was scored T1: inactive; T3: inactive.
N#Cc1ccccc1NC1c2ccccc2C(=O)N1Cc1ccccc1Cl (stereo not drawn) was scored T1: inactive; T2: inactive; T3: inactive.
COc1cccc(-c2cccc(CN3C[C@H]4C[C@H](O)[C@H](O)C[C@H]4C3)c2)c1 was scored T1: inactive; T2: inactive; T3: inactive.
CCCCSc1nc(N)cc(N2CCC(O)(Cn3ccnc3)CC2)n1 was scored T1: inactive; T2: inactive; T3: inactive.
O=C(c1ccc(-n2cnnc2)cc1Cl)N1CCCC(O)(CO)CC1 (stereo not drawn) was scored T1: inactive; T2: inactive; T3: inactive.
CC(C)NC(=O)[C@@H]1C[C@@H](N)CN1C(=O)c1ccc(C#CC(C)(C)O)cc1 was scored T1: inactive; T2: inactive; T3: inactive.
O=C1C(=O)N2c3ccccc3NC(=O)C23Nc2ccccc2NC(c2ccccc2)=C13 (stereo not drawn) was scored T1: inactive; T2: inactive; T3: inactive.
Cn1c(=O)c2c(-c3ccccc3Cl)n(C(CO)(CO)CO)cc2n(C)c1=O was scored T1: inactive; T3: inactive.
CC1Cc2cc(CNCc3cn(CCC(N)=O)c4ccccc34)ccc2O1 (stereo not drawn) was scored T1: inactive; T2: inactive; T3: inactive.
Cc1ccc(OCC(O)CNC(=O)c2ccccc2C(=O)O)cc1 (stereo not drawn) was scored T1: inactive; T2: inactive; T3: inactive.
Cc1ccc2c(c1)c(CNC(C)Cn1cnc3ccccc3c1=O)nn2C (stereo not drawn) was scored T1: inactive; T2: inactive; T3: inactive.
Cn1c(=O)c2c(nc(N3CCOCC3)n2CCO)n(C)c1=O was scored T1: inactive; T2: inactive; T3: inactive.
Cn1nc(SCc2ccccc2)c(=O)n(C(c2ccccc2)c2ccccc2)c1=O was scored T1: inactive; T2: inactive; T3: inactive.

Repeated from the top, 4 entries:

| structure | T1 | T2 | T3 |
|---|---|---|---|
| `Nc1ccc(N2C(=O)c3cccc4cccc(c34)C2=O)cc1` | inactive | inactive | inactive |
| `CN1C(C(=O)Nc2ccccn2)=C(O)c2sc(Cl)cc2S1(=O)=O` | inactive | inactive | inactive |
| `CC(C)(O)CCc1cccc(C(=O)NCC(C)(C)CO)c1` | inactive | inactive | inactive |
| `CC(=O)N[C@H]1[C@@H]([C@H](O)[C@H](O)CO)OC(C(=O)O)=C[C@@H]1N=C(N)N` | inactive | inactive | inactive |

Data from the ROBIN nucleic acid binder screens, doi:10.1002/anie.202211358.